# Data published in patent publication US20250388542A1, “ANALOGUES OF PENTAMIDINE AND USES THEREFOR” (Auransa Inc., priority 2018, published 2025).
# Tested on: MCF7
# Test: CellTiter-Glo cytotoxicity, cancer cell line panel / breast cancer study
# Format: cell-based
# Details: MCF7, Invasive ductal carcinoma
# Procedure: The objective of this study is to investigate potential cell killing effect of Compounds 1-15 on 3 cancer cell lines. 50% inhibition concentration (IC50) was determined for these compounds in various cancer cell lines using CellTiter-Glo™ luminescent cell viability assay at different compound concentrations. Each cell line (e.g., NCI-H209; NCI-H69; and SW1271) was treated with Compounds 1-15 and culture medium contains 0.2% [v/v] DMSO vehicle control. All the cells were cultured in the media supplemented with 10-20% fetal bovine serum at 37° C., 5% CO2 and 95% humidity.
# The objective of this study is to investigate the effect of Compound 1 on cytotoxicity against 61 different types of cancer cell lines. IC50 were values were obtained using CellTiter-Glo™ as described above. […]
# The objective of this study is to investigate the effect of Compound 1 on cell viability of various types of breast cancer. […] The raw data values from the CellTiter-Glo™ cell viability assay expressed in relative luminescence units were normalized to the vehicle for each individual plate, and any reduction in luminescence indicated a decrease in viability (%). The data was analyzed in GraphPad PRISM using a non-linear sigmoidal plot with variable slope (asymmetric four-point linear regression), and an IC50 value for each compound was generated. […]
smiles,measurement,value
"N.N.[Cl][Pt][Cl] [Cisplatin, cisplatin, reference compound]",IC50,690 nM
